# Experimental data: the supplement of paper PMC3334620
# In all, about 33,000 sequences were measured (“E-score (-0.5 to 0.5)”: median about -0.016, highest 2% from about 0.3 on). This is one part of the list.
# Target: T1, Yer184c (UniProt P39961)
# T1 sequence: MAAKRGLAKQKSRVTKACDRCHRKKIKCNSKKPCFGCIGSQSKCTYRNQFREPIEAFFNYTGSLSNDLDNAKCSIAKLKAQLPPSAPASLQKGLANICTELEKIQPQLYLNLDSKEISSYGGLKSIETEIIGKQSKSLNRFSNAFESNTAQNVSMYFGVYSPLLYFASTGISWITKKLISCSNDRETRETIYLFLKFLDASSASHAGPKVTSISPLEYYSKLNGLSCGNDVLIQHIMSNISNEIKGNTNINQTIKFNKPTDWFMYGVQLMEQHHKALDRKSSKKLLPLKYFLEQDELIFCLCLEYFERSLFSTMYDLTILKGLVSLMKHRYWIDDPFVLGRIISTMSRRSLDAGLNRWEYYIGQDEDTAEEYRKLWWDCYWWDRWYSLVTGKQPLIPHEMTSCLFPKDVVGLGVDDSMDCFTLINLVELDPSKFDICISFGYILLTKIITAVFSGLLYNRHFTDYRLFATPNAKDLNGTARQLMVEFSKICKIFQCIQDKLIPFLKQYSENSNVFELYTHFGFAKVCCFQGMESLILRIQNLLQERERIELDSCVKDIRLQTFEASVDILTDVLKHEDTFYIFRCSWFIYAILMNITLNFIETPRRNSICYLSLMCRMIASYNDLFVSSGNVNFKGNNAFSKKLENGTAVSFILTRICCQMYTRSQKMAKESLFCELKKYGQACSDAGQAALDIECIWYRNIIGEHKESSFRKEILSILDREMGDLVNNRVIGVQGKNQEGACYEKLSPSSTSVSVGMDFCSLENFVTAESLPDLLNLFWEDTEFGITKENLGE
# Assay: PBM E-score (8-mer binding enrichment) (E-score (-0.5 to 0.5)); higher = stronger / more preferred TF binding
# Conditions: protein concentration: 100 nM; construct: GST-full length
# Outline: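 PURExpress in vitro transcription/translation supplied GST-tagged yeast transcription factors, either full-length or DNA-binding domain. Applied at about 100-200 nM to universal all-10-mer Agilent arrays double-stranded by primer extension, the bound protein was detected with fluorescent anti-GST. E-scores, modified Wilcoxon-Mann-Whitney statistics, were given by the Universal PBM Analysis Suite to ungapped eight-base words pooled with their reverse complements after masliner normalisation.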
row,Sequence,PBM E-score
1,CACCCGGC,0.15
2,CTCGCCAG,-0.215
3,ACCTCAGG,-0.297
4,GTTCCAAC,0.147
5,ACTCGCTG,-0.0118
6,ACCAATCG,0.0959
7,AGAATGAC,-0.0794
8,AAAAGAAC,0.048
9,CTCGATAA,0.231
10,CCCCGTCG,-0.245
11,AGACACAT,-0.0872
12,GTAGCTGA,-0.104
13,CGAAGGTA,0.00719
14,GCACAGAC,0.193
15,ACATTTGG,-0.107
16,ATAAAGGA,-0.134
17,AGTCCGGA,0.429
18,AGTAGCGA,-0.0699
19,GACCTGTA,-0.187
20,CCAATAAA,0.0682
21,CTGGTTGA,-0.186
22,GGAAGCTA,0.18
23,CGGTATGC,-0.0572
24,CACCACGA,0.0645
25,AGACACAG,-0.00248

# Some of the entries so far, with bars between the fields:
row | Sequence | PBM E-score
14 | GCACAGAC | 0.193
15 | ACATTTGG | -0.107
16 | ATAAAGGA | -0.134

# Later entries.

row,Sequence,PBM E-score
1,ACGGCATG,-0.078
2,CAGTATGA,0.0255
3,AAAATAAT,0.282
4,GCCCGCCC,-0.0369
5,GTTAACCA,0.18
6,CACAGTAA,0.106
7,GAAAGTGC,-0.17
8,GAGCGACA,-0.145
9,CTTTAAGA,0.21
10,GCTGAGCA,-0.0795
11,ACCGTTCA,0.0037
12,ACGCAGAC,-0.0139
13,ATGGGTGG,-0.259
14,ATGTGACG,-0.191
15,GTGCAAGA,0.137
16,ACTCACAT,-0.255
17,ATTATTCC,0.115
18,CTTTATAC,0.155
19,CGCCAGAC,0.096
20,ACAAGTAA,-0.106
21,CAGACTCC,-0.161
22,GAATACCC,-0.0329
23,CCGTCATC,-0.0925
24,ATGATTCA,0.00877
25,AGATTAGA,0.0606

row,Sequence,PBM E-score
1,AAGTTCGT,0.0126
2,GAGCTGCA,-0.102
3,CGCGCCCC,-0.073
4,ATGACCTA,-0.0893
5,ACTAATCT,0.0196
6,CATCCGCC,0.0602
7,AGGCTGGA,-0.308
8,ACACGATC,-0.00138
9,TCGCGAAA,0.0776
10,CCGCATCG,0.0409
11,TACGAGAA,0.0363
12,CTAAAATC,-0.115
13,TGAAATAA,0.127
14,GCTTTTAA,0.0672
15,CGCGTGAC,-0.107
16,AACAGGAG,-0.164
17,GTGGTACA,-0.013
18,CAACGGGA,0.0915
19,ACCGCTTG,0.0166
20,CGACATCC,0.0211
21,AGATTTCC,0.16
22,AAGGCAAA,-0.0584
23,ACGTTCTA,-0.114
24,CTGGTCTA,-0.212
25,GCCGACTA,0.147

# Four entries from above, set out differently.
row | Sequence | PBM E-score
5 | ACTAATCT | 0.0196
6 | CATCCGCC | 0.0602
7 | AGGCTGGA | -0.308
8 | ACACGATC | -0.00138

# Continuation.

row,Sequence,PBM E-score
1,AGTAGAAT,0.0455
2,GCCGGAGA,0.29
3,CTGCGCTA,-0.254
4,CCATGACG,-0.0469
5,AGACGAGC,-0.188
6,GCCTCCAA,-0.11
7,CATCTGAG,-0.194
8,AGGGGTGC,-0.425
9,GATAAGCA,-0.03
10,ACGCAGCA,-0.106
11,AGGCACAC,-0.255
12,CTCCGCAA,0.0458
13,CCATTAAA,-0.016
14,AGAAGATA,0.231
15,CGTTTATA,0.183
16,CACTGGCC,-0.193
17,CCTCGAGG,-0.112
18,CTTCCGGC,0.343
19,CGATACTA,0.219
20,ATGATTGC,0.0363
21,AGCTTCGG,0.233
22,CACTATCG,0.00124
23,TGATGGCA,-0.287
24,GAATCGGC,0.254
25,CAAAGACC,-0.00103

row,Sequence,PBM E-score
1,GATGGACA,0.183
2,CACCCATA,-0.342
3,GTTCAAAA,0.193
4,CCAGGTTA,-0.113
5,ATAACTAG,-0.076
6,GACGCACA,0.0276
7,ACCCTGAG,-0.238
8,CTATGATC,0.0909
9,ACACCTCA,-0.211
10,ACCGGCTC,0.225
11,ACTCTCGG,0.344
12,TCCGAAAA,0.264
13,ACGTGACC,-0.184
14,GTGAGAGA,-0.0331
15,GTTCCCCA,-0.183
16,AACGCGTT,0.00161
17,TAGGAACA,-0.00939
18,GATGTGAA,0.0854
19,GATATACC,0.167
20,AAACTTCC,0.0681
21,GAACTTCC,-0.00938
22,AGATATCA,0.0377
23,TGGTATAA,0.0776
24,CATAGCGC,0.0606
25,CATAACGC,-0.0567

row,Sequence,PBM E-score
1,AAACGAAA,0.189
2,TAAGCTCA,-0.166
3,AAGCTCAG,-0.0536
4,CGTTTGAG,0.0629
5,CCACACGA,-0.193
6,CGCGGTGA,-0.0858
7,GAAGCAAC,-0.0026
8,ACCCTTAT,-0.0484
9,CCCCCGGA,-0.164
10,AATCGCGC,0.0518
11,AAAATTCG,0.181
12,CGGAGACA,0.281
13,CCATACCC,-0.139
14,GGCACCGA,0.0976
15,CTGTGGGC,-0.192
16,CCATTCCA,-0.0949
17,AGGAGGGC,-0.276
18,CTGGGAGC,-0.127
19,AACGCGTC,0.0477
20,AAAACATC,0.0496
21,CAACAGAG,0.0298
22,GCGAAATA,0.206
23,ACCGCATC,0.157
24,CGCGATTC,0.0737
25,AGATCACC,0.0646

row,Sequence,PBM E-score
1,ACACTCGT,-0.0589
2,CTCATCTA,-0.0227
3,AGTACAGA,0.127
4,TACCGGGA,0.207
5,AACATTAA,0.125
6,CGAATCAG,-0.0793
7,AGCTCACC,-0.0976
8,AGTCCGAG,0.268
9,ACAACCAT,0.128
10,AGCACTGG,-0.267
11,CCACTGAG,-0.266
12,GATCCAAA,0.196
13,TACTACTA,0.137
14,AATGTCCA,-0.132
15,CAAATTCA,-0.134
16,AACAAGCT,0.0739
17,GTTTGGGA,-0.00334
18,ACACCACT,0.0196
19,CCACCCGC,-0.138
20,GTAATTGA,0.168
21,GATTTACC,0.0984
22,GACCGGGA,0.0108
